# Results of single-concentration screens

Source: ChEMBL document CHEMBL3988442, “University of Dundee, Small-Polar-MMV Screening Library” (2021).

T. brucei: 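Whole-parasite assay of Trypanosoma brucei over 72 hours; the read-out is not stated. Concentration: 30 µM. Higher reads as stronger inhibition (inferred: compounds with an IC50 in retests scored well above the rest). Values scatter widely below zero; nearly all retest evidence comes from the higher of the two concentrations used. Of about 64,000 compounds tested this way, about 940 (1.5%) reached 50% or more in at least one test.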
Leishmania in macrophages: 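Cell assay of Leishmania donovani living inside macrophages; the read-out is not stated. Tested at 30 µM. The record gives no direction; compounds that gave an IC50 in retests scored well above the rest, so higher reads as stronger inhibition. Of about 69,000 compounds tested this way, about 1,000 (1.5%) reached 50% or more in at least one test.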

Values are the deposited “Percent Effect”, in %. The controls that fix the scale are not given in the record; negative values are as filed. The compounds are a random part of those screened.

O=C(NS(=O)(=O)c1cccc(C(F)(F)F)c1)c1cnsn1 read T. brucei: -22.22%; Leishmania in macrophages: 3.817%. Result for [H][C@@]12CS(=O)(=O)C[C@]1([H])N(C(=O)c1cc(-c3ccc(C)o3)n[nH]1)CCN2CC was T. brucei: -19.42%; Leishmania in macrophages: -26.1%. CC(=O)N1CCC(Cc2cccc(-c3ccnn3C)n2)CC1 gave T. brucei: 3.655%; Leishmania in macrophages: 7.143%. For O=C(O)C(F)(F)F.c1cnc(N2CCC3(CN(CC4CCOC4)C3)C2)nc1 (configuration not stated) the result was T. brucei: -7.083%; Leishmania in macrophages: 24.81%.

For O=C(CCc1ccccn1)N1CCCN(C(=O)CC2CCCC2)CC1 the result was Leishmania in macrophages: -12.05%. Result for CC(Cn1ccnc1)NC(=O)NCc1ccccn1 (configuration not stated) was Leishmania in macrophages: 9.786%. With Cn1ccnc1CN1CCN(CC(O)c2cccc(F)c2)CC1 (configuration not stated) the screen gave T. brucei: -16.99%; Leishmania in macrophages: 27.37%. For CC(=O)Nc1nc(C(=O)NCCOc2ccc(C)cc2)cs1 the result was T. brucei: -47.28%; Leishmania in macrophages: -14.05%.

Fc1cccc(N2CCCC3(CN(Cc4ccncc4)CCO3)C2)c1.O=C(O)C(F)(F)F.O=C(O)C(F)(F)F.O=C(O)C(F)(F)F (configuration not stated) read T. brucei: 7.874%; Leishmania in macrophages: 26.51%. CC(C)c1noc(CN(C)C(=O)C2COc3ccccc3C2)n1 (configuration not stated) gave T. brucei: -42.04%; Leishmania in macrophages: 19.98%. Cn1cnc(S(=O)(=O)NCC2CCN(C(=O)Oc3ccccc3)CC2)c1 gave T. brucei: -12.02%; Leishmania in macrophages: 12.47%. Result for O=c1c2ccccc2nnn1CN(CC1CCOC1)C1CC1 (configuration not stated) was T. brucei: -32.45%; Leishmania in macrophages: 9.103%.

Result for CC1CCCN(S(=O)(=O)NCCCn2ccc3ccccc32)C1 (configuration not stated) was T. brucei: -17.68%; Leishmania in macrophages: 6.77%. COc1cccc(CC2CCCN2CCCO)c1 (configuration not stated) gave Leishmania in macrophages: -1.333%. With Cc1ccc(F)c(-n2nnc(C(=O)O)c2-c2ccncc2)c1 the screen gave T. brucei: 3.48%; Leishmania in macrophages: 19.44%. With O=C1CNc2ncnc(Nc3cnn(Cc4ccccc4F)c3)c2N1 the screen gave T. brucei: -12.11%; Leishmania in macrophages: -26.95%.

For Cc1cc(CCCC(=O)NC2CCN(C)C2=O)c(C)s1 (configuration not stated) the result was T. brucei: -8.693%; Leishmania in macrophages: 6.362%. Result for CCCS(=O)(=O)N1CCN(C(C)(C)CO)CC1 was T. brucei: -8.729%; Leishmania in macrophages: 4.351%. For Cc1nn(C)c(C)c1CCC(=O)NCc1csc(N2CCCC2)n1 the result was T. brucei: 14.62%; Leishmania in macrophages: -1.677%. CC(C)Nc1cc(N2CCC(n3cc(C4CCCC4)nn3)CC2)ncn1 read T. brucei: -0.2255%; Leishmania in macrophages: -15.87%.

Cc1cnn(CCC(=O)N2CCCN(c3ncccc3C#N)CC2)c1 gave T. brucei: 6.807%; Leishmania in macrophages: 6.215%. With CC(=O)Nc1nc(CN2CCOC(Cn3cc(C)cn3)C2)cs1 (configuration not stated) the screen gave T. brucei: -18.91%; Leishmania in macrophages: -1.644%. Cc1cc(CN2CCC(C3Nc4ccccc4S(=O)(=O)N3)CC2)oc1C (configuration not stated) gave T. brucei: 5.11%; Leishmania in macrophages: 10.34%. CC1(C(=O)NCc2cccnc2Oc2ccc(F)cc2F)CCCNC1 (configuration not stated) gave T. brucei: -14.36%; Leishmania in macrophages: -2.248%.

For O=C(NC1CC1)c1cc(C2CCCN(Cc3ccccn3)C2)no1 (configuration not stated) the result was T. brucei: -10.15%; Leishmania in macrophages: 7.061%. With COCCN(CC(F)F)c1cc(C(F)(F)F)nc2ncnn12 the screen gave T. brucei: -31.05%; Leishmania in macrophages: 5.669%. With N#Cc1cccc(NC(=O)N2CCCC(N3CCCC3=O)C2)c1 (configuration not stated) the screen gave T. brucei: -48.44%; Leishmania in macrophages: -1.948%. For Cl.[H][C@]12CN(C(=O)NCC3CCCCC3)[C@]([H])(CN1)C2 the result was T. brucei: -16.9%; Leishmania in macrophages: 12.63%.

With CC(C)(C)NS(=O)(=O)c1ccccc1CNCc1ccccc1 the screen gave T. brucei: 1.821%; Leishmania in macrophages: 10.22%. C[C@@H]1CN(c2nc3c(cc2C(N)=O)CCC3)CC[C@@]1(O)C1CCC1 read T. brucei: -27.13%; Leishmania in macrophages: 45.86%. For O=C(CCCn1cncn1)N1CCC2(CCCNC2=O)C1 (configuration not stated) the result was T. brucei: -20.69%; Leishmania in macrophages: 12.49%. Result for O=C(NCCN1CCOCC1)c1cc(COc2ccccc2F)[nH]n1 was T. brucei: -23.83%; Leishmania in macrophages: -3.957%.

With CCN(CC)CCN(C)c1nc(-c2ccc(Cl)cc2)nc2c1CNC2 the screen gave T. brucei: -63.14%; Leishmania in macrophages: -11.89%. CSc1ccc(-c2noc(CN(CC(C)C)CC(C)C)n2)cc1 read T. brucei: -1.812%; Leishmania in macrophages: 9.689%. Result for CCC(C)(CC(=O)OC)NCc1c(C)noc1C (configuration not stated) was T. brucei: -35.9%; Leishmania in macrophages: 20.99%. COc1cc(F)ccc1N(C)Cc1cccnc1 read T. brucei: -106.7%; Leishmania in macrophages: -13.75%.

Cc1ccc2c(CC(=O)N3C[C@@H](O)[C@H](N(C)C)C3)coc2c1 read T. brucei: -16.44%; Leishmania in macrophages: -1.355%.

The last 4 entries again:

SMILES	T. brucei	Leishmania in macrophages
CSc1ccc(-c2noc(CN(CC(C)C)CC(C)C)n2)cc1	-1.812%	9.689%
CCC(C)(CC(=O)OC)NCc1c(C)noc1C (configuration not stated)	-35.9%	20.99%
COc1cc(F)ccc1N(C)Cc1cccnc1	-106.7%	-13.75%
Cc1ccc2c(CC(=O)N3C[C@@H](O)[C@H](N(C)C)C3)coc2c1	-16.44%	-1.355%